No constants are given. Whether binding was seen depends on the method and setting. Binding calls can cover weak binding; strength is not graded here.
Experiments:
[1] = biological target: Cynomolgus monkey B7-H3 protein (Sino Biological Inc. Beijing) (Cynomolgus monkey); test: ELISA, plate coated with 0.1 µg/mL Cynomolgus monkey B7-H3, HRP-labeled antibody, OD 450/620 nm
[2] = biological target: Cynomolgus monkey B7-H3 protein (Sino Biological Inc. Beijing) (Cynomolgus monkey); test: ELISA, plate coated with 0.1 µg/mL Cynomolgus monkey B7-H3, HRP-labeled antibody

B1: murine monoclonal antibody mAb152 (antibody, V domains shown)
VH: QVQLQQPGAELVRPGASVKLSCKASGYTFTAYWMNWVKQRPDQGLEWIGRIDPYDSETRYNQNFRDKARLTVDKSSSTAYMQLSSLTSEDSAVFYCARGVRIFDYWGQGTTLTVSS
VL: DIQMTQSPASLAASVGETVTITCRTSENIDYTLAWYQQKPGKSPQLLIYNANTLEDGVPSRFSGSGSGTHFSLKINSMQPEDTATYFCKQAYDVPRTFGGGTKLEIK
For B1, the binding [1] was “binds” and the binding [2] was “binds”.

B2: murine monoclonal antibody mAb272 (antibody, V domains shown)
VH: QVQLQQPGAELVRPGASVKLSCKASGYTFTAYWMNWVKQRPDQGLEWIGRIDPYDSETRYNQNFRDKARLTVDKSSSTAYMQLSSLTSEDSAVFYCARGVRIFDYWGQGTTLTVSS
VL: DIQMTQSPASLAASVGETVTITCRTSENIDYTLAWYQQKPGKSPQLLIYNANTLEDGVPSRFSGSGSGTLFSLKINNMQPEDTATYFCKQAYDVPRTFGGGTKLEIK
With B2 the binding [1] was “binds” and the binding [2] was “binds”.
